# Assay results

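Malaria parasite (P. falciparum) lines kept in red blood cells; parasite DNA is measured by SYBR Green fluorescence after lysis, 72 h after compound addition. Each compound was titrated across a series from about 0.000037 to 29 µM. The number is the fitted AC50, the concentration giving a half-maximal change in signal; a lower value means higher potency, whether the curve shows a decrease or an increase. Calls follow the curve class and fit quality: every row here is inconclusive, covering signal-raising curves and weak, poorly fitted, partial or highest-dose-only inhibition curves.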

Values are in µM. Every entry below has the call inconclusive. These entries are mostly ones the record files as inconclusive; other results of the assay are not listed here. Potencies fitted to partial, single-point or poorly fitting curves are rough. The first word of each remark tells which way the curve ran; it can be opposite to the aim of the assay.

Compound	tested on / at	potency (µM)	curve as filed
Cn1c(O)c(N=NC(N)=S)c2ccccc21	CP250	17.78	inhibitor, single point
Cn1c(O)c(N=NC(N)=S)c2ccccc21	Dd2	15.85	inhibitor, partial curve, poor fit
Cn1c(O)c(N=NC(N)=S)c2ccccc21	CP238	12.59	inhibitor, single point
Cn1c(O)c(N=NC(N)=S)c2ccccc21	CP215	19.01	inhibitor, partial curve, poor fit
Cn1c(O)c(N=NC(N)=S)c2ccccc21	CP265	12.59	inhibitor, single point
Cn1c(O)c(N=NC(N)=S)c2ccccc21	GB4	19.01	inhibitor, single point
Cn1c(O)c(N=NC(N)=S)c2ccccc21	DFO2036	17.78	inhibitor, single point
Cn1c(O)c(N=NC(N)=S)c2ccccc21	3D7	11.22	inhibitor, partial curve, poor fit
Cn1c(O)c(N=NC(N)=S)c2ccccc21	CP260	12.59	inhibitor, single point
Cn1c(O)c(N=NC(N)=S)c2ccccc21	CP191	12.59	inhibitor, single point
Cn1c(O)c(N=NC(N)=S)c2ccccc21	CP262	4.256	activator, partial curve, poor fit
Cn1c(O)c(N=NC(N)=S)c2ccccc21	CP194	12	inhibitor, partial curve, poor fit
Cn1c(O)c(N=NC(N)=S)c2ccccc21	C2A	14.13	inhibitor, single point
Cn1c(O)c(N=NC(N)=S)c2ccccc21	TAB165	17.78	inhibitor, single point
Cn1c(O)c(N=NC(N)=S)c2ccccc21	P93_24	17.78	inhibitor, single point
Cn1c(O)c(N=NC(N)=S)c2ccccc21	CP185	10	inhibitor, single point
Cn1c(O)c(N=NC(N)=S)c2ccccc21	CP286	15.85	inhibitor, single point
Cn1c(O)c(N=NC(N)=S)c2ccccc21	P94_40	17.78	inhibitor, single point
Cn1c(O)c(N=NC(N)=S)c2ccccc21	HB3	19.95	inhibitor, single point
Cn1c(O)c(N=NC(N)=S)c2ccccc21	CP291	21.33	inhibitor, single point
Cn1c(O)c(N=NC(N)=S)c2ccccc21	TAB109	17.78	inhibitor, single point
Cn1c(O)c(N=NC(N)=S)c2ccccc21	TAB113	17.78	inhibitor, single point
Cn1c(O)c(N=NC(N)=S)c2ccccc21	N140	17.78	inhibitor, single point
Cn1c(O)c(N=NC(N)=S)c2ccccc21	AS120	11.22	inhibitor, single point
Cn1c(O)c(N=NC(N)=S)c2ccccc21	DIV14	13.46	inhibitor, single point
Cn1c(O)c(N=NC(N)=S)c2ccccc21	ATS95	11.22	inhibitor, single point
Cn1c(O)c(N=NC(N)=S)c2ccccc21	CP305	15.1	inhibitor, partial curve, poor fit
Cn1c(O)c(N=NC(N)=S)c2ccccc21	CP217	17.78	inhibitor, single point

The last 2 entries again:

Compound	tested on / at	potency (µM)	curve as filed
Cn1c(O)c(N=NC(N)=S)c2ccccc21	CP305	15.1	inhibitor, partial curve, poor fit
Cn1c(O)c(N=NC(N)=S)c2ccccc21	CP217	17.78	inhibitor, single point

Source: PubChem BioAssay AID504749 (NCATS, 2011).